{
  "sequences": {"note": "Sequences of proteins named here, by UniProt entry; tags and fusion partners are left off.", "UniProt P63018": "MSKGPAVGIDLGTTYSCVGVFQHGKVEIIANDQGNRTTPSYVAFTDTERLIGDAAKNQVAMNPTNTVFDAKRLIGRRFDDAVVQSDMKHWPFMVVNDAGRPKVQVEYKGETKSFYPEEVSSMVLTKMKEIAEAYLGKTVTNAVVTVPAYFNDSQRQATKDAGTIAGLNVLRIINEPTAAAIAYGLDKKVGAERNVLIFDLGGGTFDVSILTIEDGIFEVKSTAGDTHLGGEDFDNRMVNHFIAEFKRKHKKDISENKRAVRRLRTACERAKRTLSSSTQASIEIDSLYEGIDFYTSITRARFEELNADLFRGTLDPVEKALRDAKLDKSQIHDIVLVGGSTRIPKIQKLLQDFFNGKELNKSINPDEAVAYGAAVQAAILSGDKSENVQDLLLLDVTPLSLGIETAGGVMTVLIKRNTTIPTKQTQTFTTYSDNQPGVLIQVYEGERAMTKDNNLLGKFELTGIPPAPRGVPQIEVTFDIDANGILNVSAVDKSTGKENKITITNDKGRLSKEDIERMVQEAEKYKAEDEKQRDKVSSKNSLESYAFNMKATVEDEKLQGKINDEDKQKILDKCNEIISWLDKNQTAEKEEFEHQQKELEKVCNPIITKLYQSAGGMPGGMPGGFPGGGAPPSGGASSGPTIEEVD"},
  "source": "paper PMC10167378",
  "binders": {"B1": {"name": "apoptotic protease activating factor-1 (APAF1) (protein, UniProt Q9EPV5 1-1249)", "chain": "MDAKARNCLLQHKEALEKDIKTSYIMDHMISNGVLTVVEEEKVKSQATQYQRAAALIKMILNKDNYAYISFYNALLHEGYKDLAGLLHSGLPLVSSSSGKDTDGGNTSFVRTVLCEGGVPQRPVIFVTRKKLVSAIQQKLWKLNGEPGWVTIYGMAGCGKSVLAAEAVRDHALLEGCFSGGVHWVSIGKQDKSGLLMKLQNLCTRLGQEESFSQRLPLNIEEAKDRLRVLMLRKHPRSLLILDDVWDPWVLKAFDNQCQILLTTRDKSVTDSVMGPKYVIPVESGLGKEKGLEILSLFVNMKKEDLPVEAHSIIKECKGSPLVVSLVGALLRDFPNRWAYYLRQLQNKQFKRIRKSSSYDYEALDEAMSISVEMLREDIKDYYTDLSILQKDVKVPTKVLCVLWDLETEEVEDILQEFVNKSLLFCNRNGKSFCYYLHDLQVDFLTEKNRSQLQDLHRKMVTQFQRYHQPHTLSPGQEDCMYWYNFLAYHMASAGMHKELCALMFSLDWIKAKTELVGPAHLIHEFVEYRHILDEKDCAVCENFQEFLSLNGHLLGRQPFPNIVQLGLCEPETSEVYQQAKLQAKQEVDTGRLYLEWINKKTIKNLSRLVVRPHTDAVYHACFSQDGQRIASCGADKTLQVFKAETGEKLLDIKAHEDEVLCCAFSSDDSYIATCSVDKKVKIWDSGTGKLVHTYEEHSEQVNCCHFTNKSNHLLLATGSNDSFLKLWDLNQKECRNTMFGHTNSVTHCRFSPDDELLASCSADGTLKLWDVRSANEKKSINVKRFFLSSEDPPEDVEVIVKCCSWSADGDRIIVAAKNKVLLLDIHTSGLLTEIHTGHHSTIQYCDFSPYDHLAVIALSQYCVELWNIDSRVKVADCRGHLSWVHGVMFSPDGSSFLTASDDQTIRVWETRKVCKNSAIVLKQEIDVVFQENEMMVLAVDNIRGLQLIAGKTGQIDYLPEAQVSCCCLSPHLEYVAFGDEEGAIKIIELPNNRVFSSGIGHKKAVRHIQFTADGKTLISSSEDSVIQVWNWQTEEYVFLQAHQETVKDFRLLRDSRLLSWSFDGTVKVWNVITGRIERDFTCHQGTVLSCAISSDATKFSSTSADKTAKIWSFELPSPLHELKGHNSCVRCSAFSLDGILLATGDDNGEIRIWNVSDGQLLHLCAPISIEEGTATHGGWVTDVCFSPDRKMLVSAGGYLKWWNVVTGESSQTFYTNGTNLKKIHVSPDFRTYVTVDNLGILYILQVLE"}},
  "target": "HSC70 (UniProt P63018)",
  "assay": "co-IP; IP of HSC70, blotted for APAF1, with Cdyl2-60aa overexpression; cells not named (Supplementary Fig. 4h)",
  "note": "These are yes or no findings as the source states them, for the method shown. In cells and extracts the contact can be indirect. Some binding calls cover weakened binding; strength is not graded here.",
  "data": [
    {"binder": "B1", "values": [
      {"measurement": "binding", "result": "binds"}
    ]}
  ]
}
